{
  "sequences": {"note": "The chains behind the UniProt entries cited, without tags or fusion partners. Where a name states a change or a piece, a line headed by the entry shows the natural chain unless it says otherwise. Residues count along the entry.", "UniProt P10721, 26-976": "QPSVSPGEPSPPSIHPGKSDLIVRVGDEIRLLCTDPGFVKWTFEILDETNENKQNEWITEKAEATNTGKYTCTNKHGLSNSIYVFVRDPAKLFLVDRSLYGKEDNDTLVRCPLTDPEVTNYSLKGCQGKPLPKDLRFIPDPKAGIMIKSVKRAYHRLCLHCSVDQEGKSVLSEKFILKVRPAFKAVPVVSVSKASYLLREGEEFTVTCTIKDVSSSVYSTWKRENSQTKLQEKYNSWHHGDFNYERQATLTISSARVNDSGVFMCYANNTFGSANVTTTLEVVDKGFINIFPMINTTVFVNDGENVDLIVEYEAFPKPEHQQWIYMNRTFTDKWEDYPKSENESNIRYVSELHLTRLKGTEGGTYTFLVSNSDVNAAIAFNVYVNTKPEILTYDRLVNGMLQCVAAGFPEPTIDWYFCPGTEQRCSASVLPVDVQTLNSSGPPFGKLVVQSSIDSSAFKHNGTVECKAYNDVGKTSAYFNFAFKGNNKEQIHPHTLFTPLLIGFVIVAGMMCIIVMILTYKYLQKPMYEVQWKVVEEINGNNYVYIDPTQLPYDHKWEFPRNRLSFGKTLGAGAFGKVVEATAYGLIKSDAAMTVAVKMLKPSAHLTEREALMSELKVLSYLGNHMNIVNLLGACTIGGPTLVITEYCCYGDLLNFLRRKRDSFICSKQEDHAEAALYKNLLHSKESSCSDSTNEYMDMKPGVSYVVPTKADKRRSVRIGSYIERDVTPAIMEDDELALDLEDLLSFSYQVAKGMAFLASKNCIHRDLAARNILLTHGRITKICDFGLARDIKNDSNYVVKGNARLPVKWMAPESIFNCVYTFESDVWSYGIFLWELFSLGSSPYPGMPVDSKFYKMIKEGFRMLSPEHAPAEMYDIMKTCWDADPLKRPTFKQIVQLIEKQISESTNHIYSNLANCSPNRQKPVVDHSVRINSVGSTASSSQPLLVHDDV", "UniProt Q04609": "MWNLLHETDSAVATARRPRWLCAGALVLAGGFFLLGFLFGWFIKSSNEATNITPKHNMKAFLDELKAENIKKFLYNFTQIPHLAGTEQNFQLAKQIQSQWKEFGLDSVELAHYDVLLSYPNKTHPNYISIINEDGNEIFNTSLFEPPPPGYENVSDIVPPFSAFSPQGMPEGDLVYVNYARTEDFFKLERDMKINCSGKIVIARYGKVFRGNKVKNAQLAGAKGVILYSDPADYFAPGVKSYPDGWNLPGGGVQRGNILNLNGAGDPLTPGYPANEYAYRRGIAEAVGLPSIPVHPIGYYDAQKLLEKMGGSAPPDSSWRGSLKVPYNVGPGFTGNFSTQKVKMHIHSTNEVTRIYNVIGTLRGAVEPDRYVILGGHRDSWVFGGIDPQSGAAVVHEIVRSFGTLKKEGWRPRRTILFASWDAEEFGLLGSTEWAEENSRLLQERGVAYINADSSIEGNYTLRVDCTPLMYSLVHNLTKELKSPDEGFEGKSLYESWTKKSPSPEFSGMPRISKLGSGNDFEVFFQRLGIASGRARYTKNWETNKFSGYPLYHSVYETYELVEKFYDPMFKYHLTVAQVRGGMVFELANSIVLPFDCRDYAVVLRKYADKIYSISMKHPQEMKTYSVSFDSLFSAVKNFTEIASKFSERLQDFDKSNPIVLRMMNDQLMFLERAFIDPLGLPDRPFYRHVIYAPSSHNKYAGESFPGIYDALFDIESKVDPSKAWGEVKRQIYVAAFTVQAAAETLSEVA", "UniProt Q9UPY3": "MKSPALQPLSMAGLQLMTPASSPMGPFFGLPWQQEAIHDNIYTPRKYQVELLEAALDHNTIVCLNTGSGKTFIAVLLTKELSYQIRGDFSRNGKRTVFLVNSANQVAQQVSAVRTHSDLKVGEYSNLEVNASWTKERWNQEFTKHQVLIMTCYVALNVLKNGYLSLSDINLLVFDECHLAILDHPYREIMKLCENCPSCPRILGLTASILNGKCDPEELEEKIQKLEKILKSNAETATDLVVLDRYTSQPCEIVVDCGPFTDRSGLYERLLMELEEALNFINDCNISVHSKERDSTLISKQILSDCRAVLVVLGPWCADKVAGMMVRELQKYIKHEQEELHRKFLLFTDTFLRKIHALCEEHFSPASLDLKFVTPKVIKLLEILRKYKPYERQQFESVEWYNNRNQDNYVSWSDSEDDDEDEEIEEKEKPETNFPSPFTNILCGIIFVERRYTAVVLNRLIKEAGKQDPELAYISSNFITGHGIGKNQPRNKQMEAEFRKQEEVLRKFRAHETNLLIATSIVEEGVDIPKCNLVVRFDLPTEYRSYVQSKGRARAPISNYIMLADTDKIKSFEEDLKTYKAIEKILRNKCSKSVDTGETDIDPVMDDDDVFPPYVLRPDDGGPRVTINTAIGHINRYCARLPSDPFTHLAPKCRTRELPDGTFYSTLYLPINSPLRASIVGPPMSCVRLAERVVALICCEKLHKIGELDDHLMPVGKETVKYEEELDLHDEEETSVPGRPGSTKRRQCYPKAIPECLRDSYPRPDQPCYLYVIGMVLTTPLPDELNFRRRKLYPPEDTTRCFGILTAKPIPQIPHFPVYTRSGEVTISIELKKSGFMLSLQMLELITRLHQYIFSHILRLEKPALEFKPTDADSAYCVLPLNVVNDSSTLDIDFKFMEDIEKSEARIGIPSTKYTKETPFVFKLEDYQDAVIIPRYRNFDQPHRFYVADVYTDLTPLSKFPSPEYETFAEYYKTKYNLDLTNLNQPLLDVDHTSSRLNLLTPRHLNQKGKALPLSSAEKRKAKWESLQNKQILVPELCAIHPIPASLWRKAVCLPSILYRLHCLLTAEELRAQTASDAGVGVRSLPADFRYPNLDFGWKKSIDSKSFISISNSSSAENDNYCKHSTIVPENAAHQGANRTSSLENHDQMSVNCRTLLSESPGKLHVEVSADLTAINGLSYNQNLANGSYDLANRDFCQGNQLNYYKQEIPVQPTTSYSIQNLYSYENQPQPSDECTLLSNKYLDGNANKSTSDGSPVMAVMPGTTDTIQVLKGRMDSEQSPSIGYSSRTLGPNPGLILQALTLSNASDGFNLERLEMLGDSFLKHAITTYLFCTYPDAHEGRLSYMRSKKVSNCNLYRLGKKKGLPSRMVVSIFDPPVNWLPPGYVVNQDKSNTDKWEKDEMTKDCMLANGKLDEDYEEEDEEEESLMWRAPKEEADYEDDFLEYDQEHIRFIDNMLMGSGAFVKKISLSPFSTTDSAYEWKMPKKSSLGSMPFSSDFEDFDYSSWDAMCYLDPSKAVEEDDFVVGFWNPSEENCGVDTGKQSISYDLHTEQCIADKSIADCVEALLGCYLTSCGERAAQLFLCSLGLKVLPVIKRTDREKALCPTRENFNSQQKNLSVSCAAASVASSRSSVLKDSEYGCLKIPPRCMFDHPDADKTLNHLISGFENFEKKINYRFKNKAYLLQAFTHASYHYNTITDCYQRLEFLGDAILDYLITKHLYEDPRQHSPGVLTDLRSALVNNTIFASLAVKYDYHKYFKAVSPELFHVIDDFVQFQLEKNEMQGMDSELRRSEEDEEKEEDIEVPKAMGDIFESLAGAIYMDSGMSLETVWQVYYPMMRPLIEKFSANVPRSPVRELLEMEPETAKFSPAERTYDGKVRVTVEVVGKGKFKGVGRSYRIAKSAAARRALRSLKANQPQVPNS", "UniProt P19338, 2-710": "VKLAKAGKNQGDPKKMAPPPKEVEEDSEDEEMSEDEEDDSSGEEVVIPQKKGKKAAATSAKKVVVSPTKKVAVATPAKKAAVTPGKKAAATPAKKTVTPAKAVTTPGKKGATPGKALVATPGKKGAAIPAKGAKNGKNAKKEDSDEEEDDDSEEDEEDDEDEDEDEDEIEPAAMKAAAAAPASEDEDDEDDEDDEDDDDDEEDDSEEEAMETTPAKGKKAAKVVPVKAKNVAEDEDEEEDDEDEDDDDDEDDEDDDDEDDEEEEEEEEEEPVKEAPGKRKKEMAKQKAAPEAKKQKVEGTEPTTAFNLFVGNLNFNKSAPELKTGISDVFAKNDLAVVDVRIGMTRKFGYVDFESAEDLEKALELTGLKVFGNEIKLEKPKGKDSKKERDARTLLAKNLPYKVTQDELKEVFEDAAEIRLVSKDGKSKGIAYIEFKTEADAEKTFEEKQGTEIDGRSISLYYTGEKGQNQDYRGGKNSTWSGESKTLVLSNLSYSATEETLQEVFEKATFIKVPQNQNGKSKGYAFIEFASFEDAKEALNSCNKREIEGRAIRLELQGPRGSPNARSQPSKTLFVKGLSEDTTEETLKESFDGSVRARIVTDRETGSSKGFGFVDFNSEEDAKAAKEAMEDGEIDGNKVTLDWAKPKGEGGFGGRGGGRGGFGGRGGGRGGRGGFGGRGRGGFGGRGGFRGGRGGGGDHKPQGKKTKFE"},
  "source": "patent US20100267802",
  "key": {"[1]": {"biological_target": "c-Kit (stem cell factor receptor) (Homo sapiens) (UniProt P10721)", "test": "activity in cells", "conditions": "dTdT 3' end on antisense; Plk1 knockdown in DLD-1; none in c-Kit-lacking K562; protein on the cell surface; protein details: endogenous on DLD-1 cells; dose not given here"}, "[2]": {"biological_target": "PSMA (prostate-specific membrane antigen) (Homo sapiens) (UniProt Q04609)", "test": "flow cytometry", "conditions": "protein on the cell surface, protein details: endogenous on LNCaP cells"}, "[3]": {"biological_target": "Dicer (UniProt Q9UPY3)", "test": "enzyme reaction in vitro", "conditions": "purified recombinant protein, protein details: recombinant dicer enzyme kit"}, "[4]": {"biological_target": "Nucleolin (Homo sapiens) (UniProt P19338)", "test": "flow cytometry", "conditions": "HeLa cells, 1 uM overnight, DMEM 10% FBS; internalized signal after Mg-free wash; protein on the cell surface; protein details: endogenous on HeLa cells; label: Alexa 488; folded or branched DNA"}, "[5]": {"biological_target": "Nucleolin (Homo sapiens) (UniProt P19338)", "test": "binding assay", "conditions": "fluorescence microscopy, HeLa uptake to nuclei, 400 nM, 37 C, 1 h; protein on the cell surface; protein details: endogenous on HeLa cells; label: FITC; variant of AS1411 aptamer"}, "[6]": {"conditions": "2'-F pyrimidines in aptamer sense strand, dTdT 3' end on antisense, digested to 21-23 nt fragments retaining antisense strand, label: FAM-G, variant of A10 aptamer"}},
  "note": "For some of these results: No signal at the amounts used counts as a negative. For some of these results: Results from cells or extracts need not show a direct contact.",
  "data": [
    {"sequence": "GGGAGAGAGGAAGAGGGATGGGCTCTACGTCGATCGAATTTCGGATGCATCCCAAATACCAGCATAACCCAGAGGTCGATAGTACTGGATCCCAAGGGCGGCUUUGCCAAGUGC / GCACUUGGCAAAGCCGCCCTT [9.38-Plk1 chimera]", "values": [
      {"measurement": "functional effect of the aptamer", "setting": "[1]", "value": "active"}
    ]},
    {"sequence": "GGGAGGACGAUGCGGAUCAGCCAUCCUUACGUCACUCCUUGUCAAUCCUCAUCGGCAGACGACUCGCCCGAAAGGGCGGCUUUGCCAAGUGC / GCACUUGGCAAAGCCGCCCTT [mutA10-Plk1 chimera]", "values": [
      {"measurement": "binding result", "setting": "[2]; 2'-F pyrimidines in aptamer sense strand, dTdT 3' end on antisense, no binding to LNCaP with or without DHT, up to 10 uM, label: FAM-G, variant of A10-Plk1 chimera", "value": "no binding"}
    ]},
    {"sequence": "GGGAGGACGAUGCGGAUCAGCCAUGUUUACGUCACUCCUUGUCAAUCCUCAUCGGCAGACGACUCGCCCGA [A10 aptamer]", "values": [
      {"measurement": "binding result", "setting": "[2]; 2'-F pyrimidines, LNCaP binding, none on PSMA-negative PC-3, competed by unlabeled A10 and anti-PSMA antibody, 2 mM CaCl2, 37 C, label: FAM-G", "value": "binds"},
      {"measurement": "activity on this sequence", "setting": "[3]; 2'-F pyrimidines, not digested, label: FAM-G", "value": "not active"}
    ]},
    {"sequence": "GGGAGGACGAUGCGGAUCAGCCAUGUUUACGUCACUCCUUGUCAAUCCUCAUCGGCAGACGACUCGCCCGAAAGGGCGGCUUUGCCAAGUGC / GCACUUGGCAAAGCCGCCCTT [A10-Plk1 chimera]", "values": [
      {"measurement": "binding result", "setting": "[2]; 2'-F pyrimidines in aptamer sense strand, dTdT 3' end on antisense, affinity comparable to A10, none on PC-3, competed by unlabeled A10 and anti-PSMA antibody, uptake reduced by DHT, label: FAM-G, variant of A10 aptamer", "value": "binds"},
      {"measurement": "activity on this sequence", "setting": "[3]; [6]", "value": "active"}
    ]},
    {"sequence": "GGGAGGACGAUGCGGAUCAGCCAUGUUUACGUCACUCCUUGUCAAUCCUCAUCGGCAGACGACUCGCCCGAAAGGGCGGCUUUGCCAAGUGC [ssA10-Plk1 (sense strand without antisense)]", "values": [
      {"measurement": "activity on this sequence", "setting": "[3]; 2'-F pyrimidines, not digested, variant of A10-Plk1 chimera", "value": "not active"}
    ]},
    {"sequence": "GGGAGGACGAUGCGGAUCAGCCAUGUUUACGUCACUCCUUGUCAAUCCUCAUCGGCAGACGACUCGCCCGAAAGUGAAGUCAACAUGCCUGC / GCAGGCAUGUUGACUUCACUU [A10-Bcl2 chimera]", "values": [
      {"measurement": "binding result", "setting": "[2]; 2'-F pyrimidines in aptamer sense strand, binding/uptake in LNCaP, none in PC-3, label: FITC, variant of A10 aptamer", "value": "binds"}
    ]},
    {"sequence": "GGGAGGACGAUGCGGAUCAGCCAUGUUUACGUCACUCCUUGUCAAUCCUCAUCGGCAGACGACUCGCCCGAAAUUCUCCGAACGUGUCACGU / ACGUGACACGUUCGGAGAATT [A10-CON chimera]", "values": [
      {"measurement": "binding result", "setting": "[2]; 2'-F pyrimidines in aptamer sense strand, dTdT 3' end on antisense, affinity comparable to A10, none on PC-3, competed by unlabeled A10 and anti-PSMA antibody, label: FAM-G, variant of A10 aptamer", "value": "binds"},
      {"measurement": "activity on this sequence", "setting": "[3]; [6]", "value": "active"}
    ]},
    {"sequence": "GGGAGGACGAUGCGGAUCAGCCAUGUUUACGUCACUCCUUGUCAAUCCUCAUCGGCAGACGACUCGCCCGAAAUUCUCCGAACGUGUCACGU [ssA10-CON (sense strand without antisense)]", "values": [
      {"measurement": "activity on this sequence", "setting": "[3]; 2'-F pyrimidines, not digested, variant of A10-CON chimera", "value": "not active"}
    ]},
    {"sequence": "TGGTGGTGGTGGTTGTGGTGGTGGTGG [AS1411 aptamer]", "values": [
      {"measurement": "binding result", "setting": "[4]", "value": "binds"}
    ]},
    {"sequence": "TGGTGGTGGTGGTTGTGGTGGTGGTGGAAGGGCGGCUUUGCCAAGUGC / AAGCACUUGGCAAAGCCGCCCUU [AS1411-Plk1 chimera]", "values": [
      {"measurement": "binding result", "setting": "[5]", "value": "binds"}
    ]}
  ]
}
